Results published in patent US5955575A, “Antagonists of G-protein-coupled receptor” (Hopital Sainte-Justine, priority 1997, dated 1999).
At least one peptide structure holds a part that was inferred or is arguable (an end, a ring closure or a residue). No end group written: not given here.

Protein sequences, listed by entry. Tags and fused reporters are not part of them. Lines headed by an entry give the natural chain unless they say otherwise; changes in a name come on top.
UniProt P43088: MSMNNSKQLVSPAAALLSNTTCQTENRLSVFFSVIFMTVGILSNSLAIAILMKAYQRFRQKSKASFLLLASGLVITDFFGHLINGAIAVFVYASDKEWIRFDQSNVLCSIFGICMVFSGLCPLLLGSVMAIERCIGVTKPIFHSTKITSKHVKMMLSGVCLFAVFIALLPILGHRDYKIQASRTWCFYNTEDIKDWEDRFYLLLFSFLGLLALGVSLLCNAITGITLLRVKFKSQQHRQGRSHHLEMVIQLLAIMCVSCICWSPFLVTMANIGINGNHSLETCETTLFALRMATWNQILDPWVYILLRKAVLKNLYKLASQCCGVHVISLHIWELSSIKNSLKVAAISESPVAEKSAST

target: T1, FP receptor (Homo sapiens, UniProt P43088); test: Phosphoinositide hydrolysis in permeabilized A549 cells loaded with synthetic peptides, stimulated with PGF2α; type: cell-based; conditions: peptide at 100 μM in permeabilized A549 cells; 1M PGF2α for 30 min; n=3; FIG. 2A
T1 construct: endogenous in cells; host or cells: A549 lung carcinoma cells (ATCC CCL185)

agonist-induced activation of FP receptor (fold stimulation of phosphoinositide hydrolysis by the ligand) | Substance
inhibited | CLSEEAKEARRINDEIERQLRRDKRDARRE-NH2 [PCP-3, CLSEEAKEAR RINDEIERQL RRDKRDARRE-NH2]
did not affect | DDDDDD [Asp6, poly aspartic acid, reference compound]
inhibited | KDTILQLNLKEYNLV-NH2 [PCP-4, KDTILQLNLK EYNLV-NH2]
